Source: patent US11999746B2, “Compounds” (GlaxoSmithKline Intellectual Property Development Limited, priority 2014, dated 2024)
Some results were stated once for a whole list of compounds, not compound by compound.

Each compound was assayed against Recombinant human PLA2 VIIB (Novel Serine Dependent Lipase, NSDL) (Homo sapiens, UniProt Q99487) (assay: (2a) PLA2 VIIB assay (PED6 substrate)). Conditions: Examples 1-9, 11-105, 107-193, 203-259 and 413-430 were tested here.
Assay type: biochemical

Selectivity between human recombinant Lp-PLA2 and PLA2 VIIB, at least 100 fold:
O=c1nc(OCc2cnc(Oc3ccc(Cl)c(C(F)(F)F)c3)c(F)c2)cc2n1CC1CCCN21 (stereo not shown) [Example E76, 3-((6-(4-Chloro-3-(trifluoromethyl)phenoxy)-5-fluoropyridin-3-yl)methoxy)-7,8,8a,9 tetra hydro pyrrolo[1′,2′:3,4]imidazo[1,2-c]pyrimidin-1(6H)-one]
N#Cc1cc(COc2cc3n(c(=O)n2)CC2CCCN32)ccc1Oc1ccc(Cl)c(C(F)(F)F)c1 (stereo not shown) [Example E77, 2-(4-Chloro-3-(trifluoromethyl)phenoxy)-5-(((1-oxo-1,6,7,8,8a,9-hexahydropyrrolo[1,2′:3,4]imidazo[1,2-c]pyrimidin-3-yl)oxy)methyl)benzonitrile]
O=c1nc(OCc2cc(F)c(Oc3ccc(C(F)(F)F)nc3)c(F)c2)cc2n1CC1CCCN21 (stereo not shown) [Example E78, 3-((3,5-Difluoro-4-((6-(trifluoromethyl)pyridin-3-yl)oxy)benzyl)oxy)-7,8,8a,9-tetrahydro pyrrolo[1′,2′:3,4]imidazo[1,2-c]pyrimidin-1(6H)-one]
O=c1nc(OCc2cc(F)c(Oc3ccc(C(F)(F)F)nc3)c(F)c2)cc2n1C[C@H]1CCCN21 [Example E79, (R)-3-((3,5-difluoro-4-((6-(trifluoromethyl)pyridin-3-yl)oxy)benzyl)oxy)-7,8,8a,9-tetrahydro pyrrolo[1′,2′:3,4]imidazo[1,2-c]pyrimidin-1(6H)-one]
O=c1nc(OCc2cc(F)c(Oc3ccc(C(F)(F)F)nc3)c(F)c2)cc2n1C[C@@H]1CCCN21 [Example E80, (S)-3-((3,5-difluoro-4-((6-(trifluoromethyl)pyridin-3-yl)oxy)benzyl)oxy)-7,8,8a,9-tetrahydro pyrrolo[1′,2′:3,4]imidazo[1,2-c]pyrimidin-1(6H)-one]
O=c1nc(OCc2cc(F)c(Oc3cccc(C(F)(F)F)c3)c(F)c2)cc2n1CC1CCCN21 (stereo not shown) [Example E81, 3-((3,5-difluoro-4-(3-(trifluoromethyl)phenoxy)benzyl)oxy)-7,8,8a,9-tetrahydropyrrolo[1′,2′:3, 4]imidazo[1,2-c]pyrimidin-1(6H)-one]
O=c1nc(OCc2ccc(Oc3ccc(F)c(C(F)(F)F)c3)nc2)cc2n1CC1CCCN21 (stereo not shown) [Example E82, 3-((6-(4-fluoro-3-(trifluoromethyl)phenoxy)pyridin-3-yl)methoxy)-7,8,8a,9-tetrahydro pyrrolo[1′,2′:3,4]imidazo[1,2-c]pyrimidin-1(6H)-one]
O=c1nc(OCc2cc(F)c(Oc3cccc(C(F)(F)F)c3)c(F)c2)cc2n1C[C@@H]1CCCN21 [Example E83, (S)-3-((3,5-difluoro-4-(3-(trifluoromethyl)phenoxy)benzyl)oxy)-7,8,8a,9-tetrahydropyrrolo[1′,2′:3, 4]imidazo[1,2-c]pyrimidin-1(6H)-one]
N#Cc1cc(COc2cc3n(c(=O)n2)CC2CCCN32)ccc1Oc1cccc(F)c1 (stereo not shown) [Example E85, 2-(3-fluorophenoxy)-5-(((1-oxo-1,6,7,8,8a,9-hexahydropyrrolo[1,2′:3,4]imidazo[1,2-c]pyrimidin-3-yl)oxy)methyl)benzonitrile]
N#Cc1cc(COc2cc3n(c(=O)n2)C[C@@H]2CCCN32)ccc1Oc1cccc(F)c1 [Example E86, (S)-2-(3-fluorophenoxy)-5-(((1-oxo-1,6,7,8,8a,9-hexahydropyrrolo[1′,2′:3,4]imidazo[1,2-c]pyrimidin-3-yl)oxy)methyl)benzonitrile]
N#Cc1cc(COc2cc3n(c(=O)n2)CC2CCCN32)ccc1Oc1cc(F)cc(F)c1 (stereo not shown) [Example E87, 2-(3,5-Difluorophenoxy)-5-(((1-oxo-1,6,7,8,8a,9-hexahydropyrrolo[1,2′:3,4]imidazo[1,2-c]pyrimidin-3-yl)oxy)methyl)benzonitrile]
N#Cc1cc(COc2cc3n(c(=O)n2)C[C@@H]2CCCN32)ccc1Oc1cc(F)cc(F)c1 [Example E88, (S)-2-(3,5-difluorophenoxy)-5-(((1-oxo-1,6,7,8,8a,9-hexahydropyrrolo[1′,2′:3,4]imidazo[1,2-c]pyrimidin-3-yl)oxy)methyl)benzonitrile]
O=c1nc(OCc2cc(F)c(F)c(F)c2)cc2n1CC1CCCN21 (stereo not shown) [Example E89, 3-((3,4,5-Trifluorobenzyl)oxy)-7,8,8a,9-tetrahydropyrrolo[1′,2′:3,4]imidazo[1,2-c] pyrimidin-1(6H)-one]
O=c1nc(OCc2cc(F)c(Oc3cnc(C(F)(F)F)nc3)c(F)c2)cc2n1CC1CCCN21 (stereo not shown) [Example E90, 3-((3,5-Difluoro-4-((2-(trifluoromethyl)pyrimidin-5-yl)oxy)benzyl)oxy)-7,8,8a,9-tetrahydro pyrrolo[1′,2′:3,4]imidazo[1,2-c]pyrimidin-1(6H)-one]
O=c1nc(OCc2cc(F)c(Oc3cnc(C(F)(F)F)nc3)c(F)c2)cc2n1C[C@@H]1CCCN21 [Example E91, (S)-3-((3,5-difluoro-4-((2-(trifluoromethyl)pyrimidin-5-yl)oxy)benzyl)oxy)-7,8,8a,9-tetra hydropyrrolo[1′,2′:3,4]imidazo[1,2-c]pyrimidin-1(6H)-one]
O=c1nc(OCc2cc(F)c(OC3CCCC(F)(F)C3)c(F)c2)cc2n1CC1CCCN21 (stereo not shown) [Example E92, 3-((4-((3,3-difluorocyclohexyl)oxy)-3,5-difluorobenzyl)oxy)-7,8,8a,9-tetrahydropyrrolo[1′,2′:3,4]imidazo[1,2-c]pyrimidin-1(6H)-one]
O=c1nc(OCc2cc(F)c(OC3CCCC(F)(F)C3)c(F)c2)cc2n1C[C@@H]1CCCN21 (stereo partly drawn) [Example E93, (S)-3-((4-((3,3-difluorocyclohexyl)oxy)-3,5-difluorobenzyl)oxy)-7,8,8a,9-tetrahydropyrrolo[1′,2′:3,4]imidazo[1,2-c]pyrimidin-1(6H)-one]
O=c1nc(OCc2cc(F)c(OC3CCC(F)(F)C3)c(F)c2)cc2n1CC1CCCN21 (stereo not shown) [Example E94, 3-((4-((3,3-difluorocyclopentyl)oxy)-3,5-difluorobenzyl)oxy)-7,8,8a,9-tetrahydropyrrolo[1′,2′:3,4]imidazo[1,2-c]pyrimidin-1(6H)-one]
O=c1nc(OCc2cc(F)c(OC3CCC(F)(F)C3)c(F)c2)cc2n1C[C@@H]1CCCN21 (stereo partly drawn) [Example E95, (S)-3-((4-((3,3-difluorocyclopentyl)oxy)-3,5-difluorobenzyl)oxy)-7,8,8a,9-tetrahydropyrrolo[1′,2′:3,4]imidazo[1,2-c]pyrimidin-1(6H)-one]
O=c1nc(OCc2cc(F)c(OC3CN(CCC(F)(F)F)C3)c(F)c2)cc2n1CC1CCCN21 (stereo not shown) [Example E96, 3-((3,5-Difluoro-4-((1-(3,3,3-trifluoropropyl)azetidin-3-yl)oxy)benzyl)oxy)-7,8,8a,9-tetrahy dropyrrolo[1′,2′:3,4]imidazo[1,2-c]pyrimidin-1(6H)-one]
O=c1nc(OCc2cc(F)c(OC3CN(CCC(F)(F)F)C3)c(F)c2)cc2n1C[C@@H]1CCCN21 [Example E97, (S)-3-((3,5-difluoro-4-((1-(3,3,3-trifluoropropyl)azetidin-3-yl)oxy)benzyl)oxy)-7,8,8a,9-tetra hydropyrrolo[1′,2′:3,4]imidazo[1,2-c]pyrimidin-1(6H)-one]
CCCCN1CC(Oc2c(F)cc(COc3cc4n(c(=O)n3)CC3CCCN43)cc2F)C1 (stereo not shown) [Example E98, 3-((4-((1-Butylazetidin-3-yl)oxy)-3,5-difluorobenzyl)oxy)-7,8,8a,9-tetrahydropyrrolo[1′,2′:3,4]imidazo[1,2-c]pyrimidin-1(6H)-one]
O=c1nc(OCc2cc(F)c(CCCF)c(F)c2)cc2n1CC1CCCN21 (stereo not shown) [Example E99, 3-((3,5-Difluoro-4-(3-fluoropropyl)benzyl)oxy)-7,8,8a,9-tetrahydropyrrolo[1′,2′:3,4] imidazo[1,2-c]pyrimidin-1(6H)-one]
O=c1nc(OCc2ccc(F)cc2F)cc2n1C[C@H]1CCCN21 [Example E100, (R)-3-((2,4-difluorobenzyl)oxy)-7,8,8a,9-tetrahydropyrrolo[1,2′:3,4]imidazo[1,2-c] pyrimidin-1(6H)-one]
O=c1nc(OCc2cccc(F)c2F)cc2n1C[C@H]1CCCN21 [Example E101, (R)-3-((2,3-difluorobenzyl)oxy)-7,8,8a, 9-tetrahydropyrrolo[1′, 2′:3, 4]imidazo[1,2-c] pyrimidin-1(6H)-one]
O=c1nc(OCc2cccc(F)c2)cc2n1C[C@H]1CCCN21 [Example E102, (R)-3-((3-fluorobenzyl)oxy)-7,8,8a,9-tetrahydropyrrolo[1′,2′:3,4]imidazo[1,2-c]pyrimidin-1(6H)-one]
O=c1nc(OCc2cc(F)cc(F)c2)cc2n1C[C@H]1CCCN21 [Example E103, (R)-3-((3,5-difluorobenzyl)oxy)-7,8,8a,9-tetrahydropyrrolo[1,2′:3,4]imidazo[1,2-c] pyrimidin-1(6H)-one]
O=c1nc(NCc2cccc(F)c2)cc2n1C[C@H]1CCCN21 [Example E104, (R)-3-((3-fluorobenzyl)amino)-7,8,8a,9-tetrahydropyrrolo[1′,2′:3,4]imidazo[1,2-c]pyrimidin-1(6H)-one]
